The results in this text go back to publication PMC6733801.

Sequences of proteins named here, by UniProt entry; tags and fusion partners are left off. Residues count along the entry.
UniProt Q9QUN7, residues 25-784: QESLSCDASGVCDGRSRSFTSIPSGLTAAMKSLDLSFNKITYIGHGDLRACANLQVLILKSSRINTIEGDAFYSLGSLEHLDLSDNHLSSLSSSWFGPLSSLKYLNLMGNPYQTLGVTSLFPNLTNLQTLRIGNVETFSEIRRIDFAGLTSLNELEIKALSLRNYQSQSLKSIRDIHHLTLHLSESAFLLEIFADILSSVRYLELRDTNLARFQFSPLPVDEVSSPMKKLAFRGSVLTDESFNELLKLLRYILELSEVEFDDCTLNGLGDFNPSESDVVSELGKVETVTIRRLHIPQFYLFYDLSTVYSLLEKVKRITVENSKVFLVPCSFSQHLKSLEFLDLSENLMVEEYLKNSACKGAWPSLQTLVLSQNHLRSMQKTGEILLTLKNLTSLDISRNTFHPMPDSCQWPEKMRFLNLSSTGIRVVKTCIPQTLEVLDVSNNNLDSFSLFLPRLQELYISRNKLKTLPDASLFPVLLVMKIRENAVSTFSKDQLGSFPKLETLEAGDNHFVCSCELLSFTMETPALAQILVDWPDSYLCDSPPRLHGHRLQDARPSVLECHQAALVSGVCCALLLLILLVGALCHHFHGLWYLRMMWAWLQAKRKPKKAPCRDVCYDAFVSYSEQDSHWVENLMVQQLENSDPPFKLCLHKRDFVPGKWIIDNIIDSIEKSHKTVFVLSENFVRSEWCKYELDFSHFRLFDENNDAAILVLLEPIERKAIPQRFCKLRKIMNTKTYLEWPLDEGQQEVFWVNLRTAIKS
UniProt Q08857: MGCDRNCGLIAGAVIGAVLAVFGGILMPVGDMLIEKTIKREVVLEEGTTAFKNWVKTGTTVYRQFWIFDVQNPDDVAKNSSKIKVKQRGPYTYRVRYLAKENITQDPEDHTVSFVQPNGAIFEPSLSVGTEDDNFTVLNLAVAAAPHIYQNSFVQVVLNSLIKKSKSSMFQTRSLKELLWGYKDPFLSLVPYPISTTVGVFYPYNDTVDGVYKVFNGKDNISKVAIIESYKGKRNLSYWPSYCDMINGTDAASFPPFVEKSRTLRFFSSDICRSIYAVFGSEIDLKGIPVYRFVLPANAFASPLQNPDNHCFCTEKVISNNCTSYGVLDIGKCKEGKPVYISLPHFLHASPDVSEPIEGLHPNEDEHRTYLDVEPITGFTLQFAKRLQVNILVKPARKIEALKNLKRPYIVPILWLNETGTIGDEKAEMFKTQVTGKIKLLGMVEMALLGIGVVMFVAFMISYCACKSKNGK

Results are given in words; binding and its absence hold for the method and conditions named. In cells and extracts the contact can be indirect. Some entries that bind do so weakly or less than the wild type.

For assay [1], the target named is Toll-like receptor 2 (TLR2) (mouse (endogenous in peritoneal macrophages and RAW 264.7)) (UniProt Q9QUN7). The assay is described as follows: FRET or BRET; acceptor photobleaching on fixed cells, confocal LSM-700; TLR2 antibody coupled to Cy3 (donor) and CD36 antibody coupled to Cy5 (acceptor); peritoneal macrophages or RAW 264.7 MPs stimulated with R-FSL1 (300 ng/mL) for 5 min, with or without MPE-001 (10^-7 M). (In general: Bioluminescence resonance energy transfer reports proximity on the nanometre scale.)

In assay [2] the target is cluster of differentiation 36 receptor (CD36) (mouse (endogenous in peritoneal macrophages and RAW 264.7)) (UniProt Q08857). The assay is described as follows: FRET or BRET; same experiment as a1: MPE-001 (10^-7 M) added to peritoneal macrophages or RAW 264.7 MPs stimulated with R-FSL1 (300 ng/mL) for 5 min; read-out is the loss of CD36-TLR2 energy transfer; only the binder purified.

Consider “cluster of differentiation 36 receptor (CD36) (from UniProt Q08857 1-472)”, for which, in assay [1], the binding result is recorded as “binds”. Turning to HWAYFK (D-Trp at 2, aza-Tyr at 4, D-Phe at 5) [CD36 azapeptide modulator [azaY4]-GHRP-6 (MPE-001)], the binding entry in assay [2] is given as “binds”.
